Results are given in words; binding and its absence hold for the method and conditions named. Binding seen in cells or lysates may run through a third protein. Some binding calls cover weakened binding; strength is not graded here.
Molecular target: HA-tagged PER1, O35973
Test: co-IP; B6F10 cells co-transfected with HA-PER1 and PPAR-γ2; lysis in 10 mM Tris-HCl pH 8, 420 mM NaCl, 1 mM EDTA, 0.5% NP-40; anti-HA antibody overnight at 4 °C, Protein A-Sepharose 4B; blot for PPAR-γ2; also with GW9662 (10 μM) or troglitazone (10 μM) added 3 h before harvest (association not significantly altered)
Conditions: remark: other sources report otherwise

binding: binds
B1: PPAR-γ2, P37238-1 1-505 (protein)
chain: MGETLGDSPVDPEHGAFADALPMSTSQEITMVDTEMPFWPTNFGISSVDLSVMEDHSHSFDIKPFTTVDFSSISAPHYEDIPFTRADPMVADYKYDLKLQEYQSAIKVEPASPPYYSEKTQLYNRPHEEPSNSLMAIECRVCGDKASGFHYGVHACEGCKGFFRRTIRLKLIYDRCDLNCRIHKKSRNKCQYCRFQKCLAVGMSHNAIRFGRMPQAEKEKLLAEISSDIDQLNPESADLRALAKHLYDSYIKSFPLTKAKARAILTGKTTDKSPFVIYDMNSLMMGEDKIKFKHITPLQEQSKEVAIRIFQGCQFRSVEAVQEITEYAKNIPGFINLDLNDQVTLLKYGVHEIIYTMLASLMNKDGVLISEGQGFMTREFLKNLRKPFGDFMEPKFEFAVKFNALELDDSDLAIFIAVIILSGDRPGLLNVKPIEDIQDNLLQALELQLKLNHPESSQLFAKVLQKMTDLRQIVTEHVQLLHVIKKTETDMSLHPLLQEIYKDLY

— publication PMC4855679
